This note sets out measurements from article PMC13022674.

Protein sequences, listed by entry. Tags and fused reporters are not part of them. Lines headed by an entry give the natural chain unless they say otherwise; changes in a name come on top.
UniProt Q13569: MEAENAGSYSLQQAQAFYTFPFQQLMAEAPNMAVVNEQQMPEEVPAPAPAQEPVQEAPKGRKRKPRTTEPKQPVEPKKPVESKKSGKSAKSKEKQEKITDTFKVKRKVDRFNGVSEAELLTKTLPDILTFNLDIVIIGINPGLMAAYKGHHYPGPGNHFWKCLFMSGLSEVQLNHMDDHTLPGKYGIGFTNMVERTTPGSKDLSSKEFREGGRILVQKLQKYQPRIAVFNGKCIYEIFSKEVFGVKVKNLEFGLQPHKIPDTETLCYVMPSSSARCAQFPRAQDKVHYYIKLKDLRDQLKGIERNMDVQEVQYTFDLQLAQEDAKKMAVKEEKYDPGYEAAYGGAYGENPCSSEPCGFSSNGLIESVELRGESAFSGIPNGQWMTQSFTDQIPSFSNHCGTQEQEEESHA

The data set concerns the target TDG (thymine DNA glycosylase) (human) (UniProt Q13569). Put plainly: EMSA. The note with it: range given for all R-loop substrates, EMSA: 5 nM substrate, 100 mM NaCl, 2.5 mM MgCl2, 10 mM Tris-HCl pH 7.5, 5% glycerol, 30 min 30 C, 0.6% agarose 1x TBE 4 C, recombinant protein, residues 1-410, protein details: His tag (pET28a, TALON purified), label: 5'-Cy5 strand 1 (Table S1 dU version).

For at least one entry, the source does not settle the construct or the ends of the probe. At least one verdict was read from the data and is not stated in words by the source.

As to “TCCTAGTGTCCACCAAATTCCTCAGCGCTCGCTCACCCTCCTCTACGGCCACGACTCTGGGAGTG / TCTTAAAGTATGATACTGAGGAATTTGGTGGACACTAGGA / CACTCCCAGAGTCGTGGCCGTAGAG / GAGGGUGAGCGAGCG [TCF21-flap (unmodified)]”, the binding result (strand 4 RNA) is listed as “binds”.
With “TCCTAGTGTCCACCAAATTCCTCAGCGCTCGCTCACCCTCCTCTACGGCCACGACTCTGGGAGTG / CACTCCCAGAGTCGTGGCCGTAGAGTCTTAAAGTATGATACTGAGGAATTTGGTGGACACTAGGA / GAGGGUGAGCGAGCG [TCF21-loop (unmodified)]”, the binding result (strand 3 RNA) was “binds”.
“TCCTAGTGTCCACCAAATTCCTCAGCGCTCGCTCACCCTCCTCTACGGCCACGACTCTGGGAGTG / CACTCCCAGAGTCGTGGCCGTAGAG / GAGGGUGAGCGAGCG / CTGAGGAATTTGGTGGACACTAGGA [TCF21-hybrid (unmodified)]”: the binding result (strand 3 (S25) RNA) is given as “binds”.
Consider “TCCTAGTGTCCACCAAATTCCTCAGCGCTCGCTCACCCTCCTCTACGGCCACGACTCTGGGAGTG / CACTCCCAGAGTCGTGGCCGTAGAGTCTTAAAGTATGATATCTTAAAGCACTATACTGAGGAATTTGGTGGACACTAGGA / GAGGGUGAGCGAGCG [TCF21-loopEX (unmodified)]”, for which the binding result (strand 3 RNA) is “binds”.
